For eleven molecules, binding results are on record in paper PMC6713327.

Protein sequences, listed by entry. Tags and fused reporters are not part of them.
UniProt P40937: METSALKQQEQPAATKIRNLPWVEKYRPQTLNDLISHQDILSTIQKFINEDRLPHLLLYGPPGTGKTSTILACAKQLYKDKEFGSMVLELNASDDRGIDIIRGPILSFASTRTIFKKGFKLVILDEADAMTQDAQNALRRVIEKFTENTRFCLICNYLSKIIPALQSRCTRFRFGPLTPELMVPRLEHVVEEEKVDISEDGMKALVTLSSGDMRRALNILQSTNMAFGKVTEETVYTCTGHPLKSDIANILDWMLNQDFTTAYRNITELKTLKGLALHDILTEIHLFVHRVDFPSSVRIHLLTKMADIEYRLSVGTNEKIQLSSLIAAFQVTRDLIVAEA
UniProt P35249: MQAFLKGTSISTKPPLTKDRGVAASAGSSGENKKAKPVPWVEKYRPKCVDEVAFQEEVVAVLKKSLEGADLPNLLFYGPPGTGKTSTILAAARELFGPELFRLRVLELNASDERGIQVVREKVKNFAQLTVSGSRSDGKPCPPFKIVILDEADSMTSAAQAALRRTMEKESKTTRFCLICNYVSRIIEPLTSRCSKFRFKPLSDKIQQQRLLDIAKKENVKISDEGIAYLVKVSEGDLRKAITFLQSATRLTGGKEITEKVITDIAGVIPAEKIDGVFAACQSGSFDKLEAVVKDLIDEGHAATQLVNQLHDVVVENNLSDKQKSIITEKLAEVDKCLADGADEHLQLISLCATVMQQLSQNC
UniProt P35250: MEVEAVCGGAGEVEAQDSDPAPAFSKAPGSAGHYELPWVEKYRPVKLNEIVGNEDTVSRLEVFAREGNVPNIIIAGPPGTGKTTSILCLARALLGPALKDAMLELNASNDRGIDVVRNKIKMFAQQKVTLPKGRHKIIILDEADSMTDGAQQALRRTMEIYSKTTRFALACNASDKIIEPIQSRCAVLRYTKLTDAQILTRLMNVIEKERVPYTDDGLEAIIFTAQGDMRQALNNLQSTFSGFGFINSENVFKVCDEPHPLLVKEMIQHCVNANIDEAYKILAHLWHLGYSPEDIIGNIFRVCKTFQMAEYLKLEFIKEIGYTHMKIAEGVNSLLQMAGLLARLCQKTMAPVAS
UniProt O95714: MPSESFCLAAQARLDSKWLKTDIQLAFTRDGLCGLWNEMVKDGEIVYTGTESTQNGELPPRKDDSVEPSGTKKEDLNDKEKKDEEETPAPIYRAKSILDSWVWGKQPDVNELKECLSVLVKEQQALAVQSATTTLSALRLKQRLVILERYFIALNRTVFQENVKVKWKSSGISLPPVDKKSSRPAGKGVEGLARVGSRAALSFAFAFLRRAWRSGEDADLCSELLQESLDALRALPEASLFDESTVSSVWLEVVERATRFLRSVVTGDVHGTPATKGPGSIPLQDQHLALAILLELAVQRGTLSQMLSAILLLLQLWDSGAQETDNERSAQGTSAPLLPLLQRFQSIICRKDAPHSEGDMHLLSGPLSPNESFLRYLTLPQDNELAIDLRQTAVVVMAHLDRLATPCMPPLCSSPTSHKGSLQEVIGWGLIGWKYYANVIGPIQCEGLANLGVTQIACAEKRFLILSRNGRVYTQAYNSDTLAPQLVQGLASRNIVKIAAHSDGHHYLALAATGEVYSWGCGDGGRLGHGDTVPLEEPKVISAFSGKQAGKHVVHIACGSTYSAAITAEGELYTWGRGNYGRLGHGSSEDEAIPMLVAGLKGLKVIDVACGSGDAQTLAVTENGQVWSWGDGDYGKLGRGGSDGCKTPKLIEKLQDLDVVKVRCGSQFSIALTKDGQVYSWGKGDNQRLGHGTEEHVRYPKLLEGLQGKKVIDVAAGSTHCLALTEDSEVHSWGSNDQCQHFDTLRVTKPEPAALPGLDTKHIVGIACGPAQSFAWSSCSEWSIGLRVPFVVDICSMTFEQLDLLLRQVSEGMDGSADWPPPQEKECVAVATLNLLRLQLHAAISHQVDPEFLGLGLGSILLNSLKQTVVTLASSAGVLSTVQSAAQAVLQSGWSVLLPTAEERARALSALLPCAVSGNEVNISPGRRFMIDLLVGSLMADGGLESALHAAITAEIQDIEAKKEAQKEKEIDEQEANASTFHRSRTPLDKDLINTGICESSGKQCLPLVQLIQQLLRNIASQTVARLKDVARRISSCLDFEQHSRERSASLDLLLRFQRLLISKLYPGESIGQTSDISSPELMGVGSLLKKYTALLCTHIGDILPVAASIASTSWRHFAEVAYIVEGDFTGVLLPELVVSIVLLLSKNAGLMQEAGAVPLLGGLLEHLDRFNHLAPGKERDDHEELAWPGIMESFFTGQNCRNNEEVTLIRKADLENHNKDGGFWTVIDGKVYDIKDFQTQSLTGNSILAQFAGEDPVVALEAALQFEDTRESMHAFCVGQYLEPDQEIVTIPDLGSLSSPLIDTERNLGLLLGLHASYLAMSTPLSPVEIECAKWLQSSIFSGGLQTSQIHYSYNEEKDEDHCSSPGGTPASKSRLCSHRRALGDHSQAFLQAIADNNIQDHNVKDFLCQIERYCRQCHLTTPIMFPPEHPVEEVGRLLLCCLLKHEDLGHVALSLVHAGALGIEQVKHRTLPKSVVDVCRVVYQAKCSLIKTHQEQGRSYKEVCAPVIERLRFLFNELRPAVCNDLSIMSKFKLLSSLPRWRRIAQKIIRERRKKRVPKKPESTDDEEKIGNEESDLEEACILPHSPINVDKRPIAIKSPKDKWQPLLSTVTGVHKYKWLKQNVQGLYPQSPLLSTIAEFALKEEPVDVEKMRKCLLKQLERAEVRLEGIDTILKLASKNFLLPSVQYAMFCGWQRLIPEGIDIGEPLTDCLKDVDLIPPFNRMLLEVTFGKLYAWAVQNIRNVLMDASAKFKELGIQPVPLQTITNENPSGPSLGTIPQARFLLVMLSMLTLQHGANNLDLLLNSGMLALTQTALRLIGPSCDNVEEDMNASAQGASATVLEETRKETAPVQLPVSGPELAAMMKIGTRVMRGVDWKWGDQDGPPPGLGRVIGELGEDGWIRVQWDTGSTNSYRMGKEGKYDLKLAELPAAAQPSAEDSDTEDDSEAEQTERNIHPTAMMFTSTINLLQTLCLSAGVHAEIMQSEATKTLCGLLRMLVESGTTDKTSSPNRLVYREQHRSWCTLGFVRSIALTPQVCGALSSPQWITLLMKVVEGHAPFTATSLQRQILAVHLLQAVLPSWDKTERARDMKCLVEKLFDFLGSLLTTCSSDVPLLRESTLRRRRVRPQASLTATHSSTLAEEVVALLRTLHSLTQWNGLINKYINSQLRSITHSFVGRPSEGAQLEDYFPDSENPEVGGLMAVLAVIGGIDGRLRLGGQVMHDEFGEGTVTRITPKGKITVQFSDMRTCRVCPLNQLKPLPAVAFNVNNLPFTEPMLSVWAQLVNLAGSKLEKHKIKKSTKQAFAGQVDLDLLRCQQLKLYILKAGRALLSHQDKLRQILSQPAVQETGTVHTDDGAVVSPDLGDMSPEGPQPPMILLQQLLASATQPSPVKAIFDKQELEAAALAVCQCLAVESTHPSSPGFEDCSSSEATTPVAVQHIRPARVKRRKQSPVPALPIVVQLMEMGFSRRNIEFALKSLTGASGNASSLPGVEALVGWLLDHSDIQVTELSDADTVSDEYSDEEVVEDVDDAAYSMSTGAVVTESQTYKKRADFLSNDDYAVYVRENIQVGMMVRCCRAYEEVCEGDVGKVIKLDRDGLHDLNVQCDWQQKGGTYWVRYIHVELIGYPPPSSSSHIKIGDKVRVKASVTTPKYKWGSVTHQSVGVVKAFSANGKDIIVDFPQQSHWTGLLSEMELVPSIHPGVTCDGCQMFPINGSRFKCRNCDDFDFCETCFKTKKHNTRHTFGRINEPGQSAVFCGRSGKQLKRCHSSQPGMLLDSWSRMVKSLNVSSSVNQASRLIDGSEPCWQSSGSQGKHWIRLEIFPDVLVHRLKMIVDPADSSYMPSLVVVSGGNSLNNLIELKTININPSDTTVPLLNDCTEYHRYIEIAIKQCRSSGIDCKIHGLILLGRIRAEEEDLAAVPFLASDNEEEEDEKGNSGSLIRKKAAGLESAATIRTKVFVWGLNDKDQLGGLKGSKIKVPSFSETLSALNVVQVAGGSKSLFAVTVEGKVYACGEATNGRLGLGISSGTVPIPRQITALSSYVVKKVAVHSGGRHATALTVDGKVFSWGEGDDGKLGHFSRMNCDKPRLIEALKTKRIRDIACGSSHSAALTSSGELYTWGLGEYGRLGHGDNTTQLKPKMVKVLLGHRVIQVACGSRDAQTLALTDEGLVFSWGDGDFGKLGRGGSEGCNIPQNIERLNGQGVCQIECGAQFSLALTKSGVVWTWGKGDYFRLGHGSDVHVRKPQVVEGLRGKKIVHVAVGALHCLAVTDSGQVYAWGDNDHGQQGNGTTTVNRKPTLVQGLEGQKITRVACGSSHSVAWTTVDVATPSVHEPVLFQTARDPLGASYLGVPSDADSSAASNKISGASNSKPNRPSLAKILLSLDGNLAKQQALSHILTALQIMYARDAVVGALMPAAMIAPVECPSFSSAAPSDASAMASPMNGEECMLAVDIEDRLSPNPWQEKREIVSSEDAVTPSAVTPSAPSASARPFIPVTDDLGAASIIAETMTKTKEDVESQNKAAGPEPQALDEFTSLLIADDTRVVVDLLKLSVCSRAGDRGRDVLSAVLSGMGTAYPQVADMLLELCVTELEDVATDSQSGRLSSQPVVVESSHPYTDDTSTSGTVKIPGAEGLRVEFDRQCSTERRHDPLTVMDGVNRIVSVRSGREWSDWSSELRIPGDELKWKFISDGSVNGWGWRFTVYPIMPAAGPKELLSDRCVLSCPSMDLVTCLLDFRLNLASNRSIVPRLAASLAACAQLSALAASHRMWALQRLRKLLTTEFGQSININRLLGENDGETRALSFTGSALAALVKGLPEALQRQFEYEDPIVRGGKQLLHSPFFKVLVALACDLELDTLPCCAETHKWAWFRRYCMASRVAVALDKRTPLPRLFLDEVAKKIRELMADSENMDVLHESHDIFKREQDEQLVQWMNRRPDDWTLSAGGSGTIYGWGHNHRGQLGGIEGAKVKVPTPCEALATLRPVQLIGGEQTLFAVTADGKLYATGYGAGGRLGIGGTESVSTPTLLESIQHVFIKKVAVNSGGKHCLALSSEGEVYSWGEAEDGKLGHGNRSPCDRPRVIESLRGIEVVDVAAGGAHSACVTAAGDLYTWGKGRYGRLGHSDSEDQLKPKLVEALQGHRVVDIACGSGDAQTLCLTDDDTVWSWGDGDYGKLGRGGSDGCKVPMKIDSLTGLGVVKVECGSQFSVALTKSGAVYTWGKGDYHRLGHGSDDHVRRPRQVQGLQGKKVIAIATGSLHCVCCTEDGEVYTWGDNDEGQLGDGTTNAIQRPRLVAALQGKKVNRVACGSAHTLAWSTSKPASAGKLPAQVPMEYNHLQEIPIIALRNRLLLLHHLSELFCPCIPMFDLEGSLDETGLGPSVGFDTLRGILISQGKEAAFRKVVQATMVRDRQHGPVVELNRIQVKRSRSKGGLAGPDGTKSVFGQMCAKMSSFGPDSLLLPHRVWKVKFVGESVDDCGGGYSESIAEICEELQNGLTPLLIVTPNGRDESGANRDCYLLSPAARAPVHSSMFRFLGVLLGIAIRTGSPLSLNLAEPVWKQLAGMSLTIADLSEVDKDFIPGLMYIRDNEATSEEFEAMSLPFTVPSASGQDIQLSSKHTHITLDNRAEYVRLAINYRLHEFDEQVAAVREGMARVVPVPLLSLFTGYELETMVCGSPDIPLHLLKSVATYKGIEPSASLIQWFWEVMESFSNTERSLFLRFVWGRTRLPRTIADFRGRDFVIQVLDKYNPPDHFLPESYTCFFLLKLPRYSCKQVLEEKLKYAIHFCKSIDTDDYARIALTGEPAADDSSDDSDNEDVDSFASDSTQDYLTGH

No constants are given. Whether binding was seen depends on the method and setting. Binding seen in cells or lysates may run through a third protein. Here binding means that the protein was enriched with, or labelled near, the bait; the list need not be complete. For some of these results: No binding means not detected with the bait.

In test [1] the target is T1, FANCA (human (endogenous in 293FT and EndoC-βH3)) (UniProt O15360).
T1 sequence: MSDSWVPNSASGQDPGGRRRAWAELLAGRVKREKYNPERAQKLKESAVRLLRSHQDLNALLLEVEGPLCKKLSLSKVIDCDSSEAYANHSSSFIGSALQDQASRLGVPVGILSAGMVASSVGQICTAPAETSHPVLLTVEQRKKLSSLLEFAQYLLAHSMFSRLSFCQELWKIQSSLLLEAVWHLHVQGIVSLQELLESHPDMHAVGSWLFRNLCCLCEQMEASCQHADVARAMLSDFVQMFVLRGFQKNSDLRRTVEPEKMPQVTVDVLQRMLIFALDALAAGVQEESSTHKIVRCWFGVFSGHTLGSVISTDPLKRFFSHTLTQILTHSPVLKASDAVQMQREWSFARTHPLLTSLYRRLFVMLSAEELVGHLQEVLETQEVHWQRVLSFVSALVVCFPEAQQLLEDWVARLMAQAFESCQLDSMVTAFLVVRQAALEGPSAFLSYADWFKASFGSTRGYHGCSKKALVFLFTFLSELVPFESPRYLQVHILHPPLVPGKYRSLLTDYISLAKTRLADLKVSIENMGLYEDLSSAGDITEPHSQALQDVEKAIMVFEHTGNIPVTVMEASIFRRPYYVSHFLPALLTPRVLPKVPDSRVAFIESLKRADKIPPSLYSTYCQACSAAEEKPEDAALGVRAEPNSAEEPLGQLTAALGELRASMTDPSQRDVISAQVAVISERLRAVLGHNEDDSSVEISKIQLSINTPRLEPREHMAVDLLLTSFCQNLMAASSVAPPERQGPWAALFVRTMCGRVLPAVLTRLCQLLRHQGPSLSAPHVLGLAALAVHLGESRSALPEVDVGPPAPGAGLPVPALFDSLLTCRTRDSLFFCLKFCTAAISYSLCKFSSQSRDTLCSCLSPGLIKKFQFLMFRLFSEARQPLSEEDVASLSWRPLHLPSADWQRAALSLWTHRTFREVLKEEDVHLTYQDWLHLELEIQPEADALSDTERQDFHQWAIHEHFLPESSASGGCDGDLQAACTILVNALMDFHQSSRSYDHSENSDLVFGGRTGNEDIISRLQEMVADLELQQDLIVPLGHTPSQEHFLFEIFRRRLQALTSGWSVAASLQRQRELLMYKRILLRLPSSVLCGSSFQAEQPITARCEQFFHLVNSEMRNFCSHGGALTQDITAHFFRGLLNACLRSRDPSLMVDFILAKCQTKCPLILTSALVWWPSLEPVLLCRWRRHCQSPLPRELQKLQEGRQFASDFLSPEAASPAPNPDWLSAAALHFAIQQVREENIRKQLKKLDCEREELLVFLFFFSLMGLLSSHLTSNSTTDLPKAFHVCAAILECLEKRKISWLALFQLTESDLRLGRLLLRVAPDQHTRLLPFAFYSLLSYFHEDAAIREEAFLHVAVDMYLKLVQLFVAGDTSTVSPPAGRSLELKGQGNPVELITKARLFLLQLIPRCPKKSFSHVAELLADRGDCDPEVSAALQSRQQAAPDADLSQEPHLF
The test is described as follows: affinity purification with mass spectrometry; endogenous FANCA precipitated from 293FT lysate (NETN buffer) with anti-FANCA antibody coupled to Dynabeads, 2 h at 4°C; rabbit IgG as negative control; LC-MS/MS, SAINT (BFDR ≤ 0.05, SAINT score ≥ 0.8); biological duplicates.

The target in test [2] is T1, FANCA (human (endogenous in 293FT and EndoC-βH3)). The test is described as follows: condition: only cells in 5 mM glucose (not glucose-stimulated); affinity purification with mass spectrometry; as a2, only the EndoC-βH3 cells cultured in 5 mM glucose (not stimulated).
For test [3] the target is unchanged. As to the kind of experiment: affinity purification with mass spectrometry; endogenous FANCA precipitated from lysate of EndoC-βH3 cells cultured in 5 mM or 20 mM glucose, anti-FANCA antibody coupled to Dynabeads, 2 h at 4°C; LC-MS/MS, SAINT (BFDR ≤ 0.05, SAINT score = 1.0); biological duplicates.
For test [4] the target is unchanged. As to the kind of experiment: affinity purification with mass spectrometry; endogenous FANCA precipitated from 293FT lysate (NETN buffer) with anti-FANCA antibody coupled to Dynabeads, 2 h at 4°C; rabbit IgG as negative control; LC-MS/MS, SAINT (BFDR ≤ 0.05, SAINT score ≥ 0.8); biological duplicates. This is another data set of the same source.

In the case of RFC5 (from UniProt P40937 1-340), the binding result in test [1] was “binds”. RFC4 (from UniProt P35249 1-363): the binding result in test [1] is “binds”.

As for RFC2 (from UniProt P35250 1-354), the binding entry in test [1] is “binds”. For the molecule HERC2 (from UniProt O95714 1-4834), in test [1], the binding result is reported as “binds”. With MSH3 (from UniProt P20585 1-1137), the binding entry in test [1] is “binds”.

B1: FANCE (protein, UniProt Q9HB96 1-536)
chain: MATPDAGLPGAEGVEPAPWAQLEAPARLLLQALQAGPEGARRGLGVLRALGSRGWEPFDWGRLLEALCREEPVVQGPDGRLELKPLLLRLPRICQRNLMSLLMAVRPSLPESGLLSVLQIAQQDLAPDPDAWLRALGELLRRDLGVGTSMEGASPLSERCQRQLQSLCRGLGLGGRRLKSPQAPDPEEEENRDSQQPGKRRKDSEEEAASPEGKRVPKRLRCWEEEEDHEKERPEHKSLESLADGGSASPIKDQPVMAVKTGEDGSNLDDAKGLAESLELPKAIQDQLPRLQQLLKTLEEGLEGLEDAPPVELQLLHECSPSQMDLLCAQLQLPQLSDLGLLRLCTWLLALSPDLSLSNATVLTRSLFLGRILSLTSSASRLLTTALTSFCAKYTYPVCSALLDPVLQAPGTGPAQTELLCCLVKMESLEPDAQVLMLGQILELPWKEETFLVLQSLLERQVEMTPEKFSVLMEKLCKKGLAATTSMAYAKLMLTVMTKYQANITETQRLGLAMALEPNTTFLRKSLKAALKHLGP
Turning to B1, the binding entry in test [2] is “no binding”; in test [3] it was “binds”.

B2: FANCL (protein, UniProt Q9NW38 1-375)
chain: MAVTEASLLRQCPLLLPQNRSKTVYEGFISAQGRDFHLRIVLPEDLQLKNARLLCSWQLRTILSGYHRIVQQRMQHSPDLMSFMMELKMLLEVALKNRQELYALPPPPQFYSSLIEEIGTLGWDKLVYADTCFSTIKLKAEDASGREHLITLKLKAKYPAESPDYFVDFPVPFCASWTPQSSLISIYSQFLAAIESLKAFWDVMDEIDEKTWVLEPEKPPRSATARRIALGNNVSINIEVDPRHPTMLPECFFLGADHVVKPLGIKLSRNIHLWDPENSVLQNLKDVLEIDFPARAILEKSDFTMDCGICYAYQLDGTIPDQVCDNSQCGQPFHQICLYEWLRGLLTSRQSFNIIFGECPYCSKPITLKMSGRKH
For the molecule B2, the binding entry in test [3] and in test [4] was “binds” in each case.

B3: FANCB (protein, UniProt Q8NB91 1-859)
chain: MTSKQAMSSNEQERLLCYNGEVLVFQLSKGNFADKEPTKTPILHVRRMVFDRGTKVFVQKSTGFFTIKEENSHLKIMCCNCVSDFRTGINLPYIVIEKNKKNNVFEYFLLILHSTNKFEMRLSFKLGYEMKDGLRVLNGPLILWRHVKAFFFISSQTGKVVSVSGNFSSIQWAGEIENLGMVLLGLKECCLSEEECTQEPSKSDYAIWNTKFCVYSLESQEVLSDIYIIPPAYSSVVTYVHICATEIIKNQLRISLIALTRKNQLISFQNGTPKNVCQLPFGDPCAVQLMDSGGGNLFFVVSFISNNACAVWKESFQVAAKWEKLSLVLIDDFIGSGTEQVLLLFKDSLNSDCLTSFKITDLGKINYSSEPSDCNEDDLFEDKQENRYLVVPPLETGLKVCFSSFRELRQHLLLKEKIISKSYKALINLVQGKDDNTSSAEEKECLVPLCGEEENSVHILDEKLSDNFQDSEQLVEKIWYRVIDDSLVVGVKTTSSLKLSLNDVTLSLLMDQAHDSRFRLLKCQNRVIKLSTNPFPAPYLMPCEIGLEAKRVTLTPDSKKEESFVCEHPSKKECVQIITAVTSLSPLLTFSKFCCTVLLQIMERESGNCPKDRYVVCGRVFLSLEDLSTGKYLLTFPKKKPIEHMEDLFALLAAFHKSCFQITSPGYALNSMKVWLLEHMKCEIIKEFPEVYFCERPGSFYGTLFTWKQRTPFEGILIIYSRNQTVMFQCLHNLIRILPINCFLKNLKSGSENFLIDNMAFTLEKELVTLSSLSSAIAKHESNFMQRCEVSKGKSSVVAAALSDRRENIHPYRKELQREKKKMLQTNLKVSGALYREITLKVAEVQLKSDFAAQKLSNL
Turning to B3, the binding entry is listed as “no binding” in test [2], “binds” in test [3] and “binds” in test [4].

B4: FAAP100 (protein, UniProt Q0VG06 1-881)
chain: MAGAAPRVRYLAGFCCPLGGLAAGKPRVLCHEAEVFLSTGSELVYVYDQEGGLLTAAFRFPDQVWHLELLAPRRLLYALCARRGLYCLSLDHPGRSRSTSQDDRDSEDGDQPSPVIPVDPDACILPDAALCAFTLLDSVLVTLVQGPARWKMQLFEQPCPGEDPRPGGQIGEVELSSYTPPAGVPGKPAAPHFLPVLCSVSPSGSRVPHDLLGGSGGFTLEDALFGLLFGADATLLQSPVVLCGLPDGQLCCVILKALVTSRSAPGDPNALVKILHHLEEPVIFIGALKTEPQAAEAAENFLPDEDVHCDCLVAFGHHGRMLAIKASWDESGKLVPELREYCLPGPVLCAACGGGGRVYHSTPSDLCVVDLSRGSTPLGPEQPEEGPGGLPPMLCPASLNICSVVSLSASPRTHEGGTKLLALSAKGRLMTCSLDLDSEMPGPARMTTESAGQKIKELLSGIGNISERVSFLKKAVDQRNKALTSLNEAMNVSCALLSSGTGPRPISCTTSTTWSRLQTQDVLMATCVLENSSSFSLDQGWTLCIQVLTSSCALDLDSACSAITYTIPVDQLGPGARREVTLPLGPGENGGLDLPVTVSCTLFYSLREVVGGALAPSDSEDPFLDECPSDVLPEQEGVCLPLSRHTVDMLQCLRFPGLAPPHTRAPSPLGPTRDPVATFLETCREPGSQPAGPASLRAEYLPPSVASIKVSAELLRAALKDGHSGVPLCCATLQWLLAENAAVDVVRARALSSIQGVAPDGANVHLIVREVAMTDLCPAGPIQAVEIQVESSSLADICRAHHAVVGRMQTMVTEQATQGSSAPDLRVQYLRQIHANHETLLREVQTLRDRLCTEDEASSCATAQRLLQVYRQLRHPSLILL
With B4, the binding entry is “no binding” in test [2], “binds” in test [3] and “binds” in test [4].

B5: FANCF (protein, UniProt Q9NPI8 1-374)
chain: MESLLQHLDRFSELLAVSSTTYVSTWDPATVRRALQWARYLRHIHRRFGRHGPIRTALERRLHNQWRQEGGFGRGPVPGLANFQALGHCDVLLSLRLLENRALGDAARYHLVQQLFPGPGVRDADEETLQESLARLARRRSAVHMLRFNGYRENPNLQEDSLMKTQAELLLERLQEVGKAEAERPARFLSSLWERLPQNNFLKVIAVALLQPPLSRRPQEELEPGIHKSPGEGSQVLVHWLLGNSEVFAAFCRALPAGLLTLVTSRHPALSPVYLGLLTDWGQRLHYDLQKGIWVGTESQDVPWEELHNRFQSLCQAPPPLKDKVLTALETCKAQDGDFEVPGLSIWTDLLLALRSGAFRKRQVLGLSAGLSSV
Consider B5, for which the binding result in test [2] is listed as “no binding”; in test [3] it was “binds”.

B6: FANCG (protein, UniProt O15287 1-622)
chain: MSRQTTSVGSSCLDLWREKNDRLVRQAKVAQNSGLTLRRQQLAQDALEGLRGLLHSLQGLPAAVPVLPLELTVTCNFIILRASLAQGFTEDQAQDIQRSLERVLETQEQQGPRLEQGLRELWDSVLRASCLLPELLSALHRLVGLQAALWLSADRLGDLALLLETLNGSQSGASKDLLLLLKTWSPPAEELDAPLTLQDAQGLKDVLLTAFAYRQGLQELITGNPDKALSSLHEAASGLCPRPVLVQVYTALGSCHRKMGNPQRALLYLVAALKEGSAWGPPLLEASRLYQQLGDTTAELESLELLVEALNVPCSSKAPQFLIEVELLLPPPDLASPLHCGTQSQTKHILASRCLQTGRAGDAAEHYLDLLALLLDSSEPRFSPPPSPPGPCMPEVFLEAAVALIQAGRAQDALTLCEELLSRTSSLLPKMSRLWEDARKGTKELPYCPLWVSATHLLQGQAWVQLGAQKVAISEFSRCLELLFRATPEEKEQGAAFNCEQGCKSDAALQQLRAAALISRGLEWVASGQDTKALQDFLLSVQMCPGNRDTYFHLLQTLKRLDRRDEATALWWRLEAQTKGSHEDALWSLPLYLESYLSWIRPSDRDAFLEEFRTSLPKSCDL
As to B6, the binding entry in test [3] and in test [4] was “binds” each time.
